Laboratory results from US20140242068A1 (EMORY UNIVERSITY, published 2014).
These are yes or no findings as the source states them, for the method shown. Binding can be weak; no strength is given.

Assays:
[1] = biological target: full length JAML tagged at the C-terminus with 6xMyc, on CHO cells (CHO JAML-6xMyc) (human); experiment: flow cytometry on CHO JAML-6xMyc cells
[2] = biological target: full length JAML tagged at the C-terminus with 10 His, on CHO cells (CHO-JAML-His) (human); experiment: flow cytometry on CHO-JAML-His cells
[3] = biological target: full length JAML tagged at the C-terminus with 10 His, on CHO cells (CHO-JAML-His) (human); experiment: immunoprecipitation from biotinylated cell lysates, streptavidin blot
[4] = biological target: soluble full length JAML.D1D2-His (sJAML-His) (human); experiment: ELISA, antigen coated at 5 µg/ml, antibody 10 µg/ml
[5] = biological target: soluble full length JAML.D1D2-His (sJAML-His) (human); experiment: ELISA on coated JAML fragments

Measured: binding

B1: DW216 (antibody, IgG1, V domains shown)
VH: DVQLVESGPGLVKPSQSLSLTCTVTGYSITSDYAWNWIRQFPGNKLEWMGYISSSGNSNYNPSLKSRISITRDTSKNQFFLQLNSVTTEDTATYYCAGATGYSMDYWGQGTTLTVK
VL: VLTQSPAIMSASLGERVTMTCTASSSVSSSYLHWYQQKPGSSPKLWIYSTSNLASGVPARFSGSGSGTSYSLTISSMEAEDAATYYCHQYHRSPFTFGSGTKLELK
notes: also called DW216 mAb; H3L3
binds: all assays above

B2: DW100 (antibody, IgG1, V domains shown)
VH: DVQLVESGAELVRPGASVKLSCKALAYTFTDYEMHWVKQTPVHGLEWIGIIHPGSGGTVYNQKFKGKATLTADKSSSTAYMELSSLTSEDSTVYYCTRRRYYGSSYWYFDVWGAGN
VL: VLTQSPASLAASVGETVTITCRASENIYYSLAWYQQKQGKSPQLLIYNANSLEDGVPSRFSGSGSGTQYSLKINSMQPEDTATYFCEQTYDVPLTFGAGTKLEL
notes: also called DW100 mAb; anti-JAML monoclonal antibody DW100
not listed: [3]
binds: all other assays above
